Measured values from article PMC3045356.
Results are given in words; binding and its absence hold for the method and conditions named. Binding seen in cells or lysates may run through a third protein. Some results given as binding are weak or reduced against the parent protein; the word gives no strength.

Tests used:
[1] = target: Death receptor 4 (DR4) (human (endogenous in SW948)), O00220; experiment: co-IP; DR4-DISC and DR5-DISC: SW948 cells stimulated 15 min at 37°C with 5 μg/ml agonistic antibody (HGS-ETR1 for DR4, TR2J for DR5); lysis in 0.2% Nonidet P-40, 150 mM NaCl, 20 mM Tris-HCl pH 7.5; precipitated with protein-G agarose; Western blot for DR4, DR5, FADD, caspase 8, c-FLIP; details: remark: other sources report otherwise
[2] = target: Death receptor 5 (DR5) (human (endogenous in SW948)), O14763; experiment: as above; details: remark: other sources report otherwise

B1: Caspase 8, Q14790 1-479 (enzyme)
chain: MDFSRNLYDIGEQLDSEDLASLKFLSLDYIPQRKQEPIKDALMLFQRLQEKRMLEESNLSFLKELLFRINRLDLLITYLNTRKEEMERELQTPGRAQISAYRVMLYQISEEVSRSELRSFKFLLQEEISKCKLDDDMNLLDIFIEMEKRVILGEGKLDILKRVCAQINKSLLKIINDYEEFSKERSSSLEGSPDEFSNGEELCGVMTISDSPREQDSESQTLDKVYQMKSKPRGYCLIINNHNFAKAREKVPKLHSIRDRNGTHLDAGALTTTFEELHFEIKPHDDCTVEQIYEILKIYQLMDHSNMDCFICCILSHGDKGIIYGTDGQEAPIYELTSQFTGLKCPSLAGKPKVFFIQACQGDNYQKGIPVETDSEEQPYLEMDLSSPQTRYIPDEADFLLGMATVNNCVSYRNPAEGTWYIQSLCQSLRERCPRGDDILTILTEVNYEVSNKDDKKNMGKQMPQPTFTLRKKLVFPSD
[1]
  binding: binds
[2]
  binding: binds
